In paper PMC12811313:
Results are given in words; binding and its absence hold for the method and conditions named. Binding seen in cells or lysates may run through a third protein. These calls come from enrichment with a bait or labelling near it, and not all partners need be listed.

Protein sequences, listed by entry. Tags and fused reporters are not part of them.
UniProt O00161: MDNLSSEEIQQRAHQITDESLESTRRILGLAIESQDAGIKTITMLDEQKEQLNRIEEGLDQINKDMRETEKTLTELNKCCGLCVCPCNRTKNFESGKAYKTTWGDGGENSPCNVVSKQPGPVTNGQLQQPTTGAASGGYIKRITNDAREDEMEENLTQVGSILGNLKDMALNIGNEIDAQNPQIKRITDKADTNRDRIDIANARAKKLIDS
UniProt P19474: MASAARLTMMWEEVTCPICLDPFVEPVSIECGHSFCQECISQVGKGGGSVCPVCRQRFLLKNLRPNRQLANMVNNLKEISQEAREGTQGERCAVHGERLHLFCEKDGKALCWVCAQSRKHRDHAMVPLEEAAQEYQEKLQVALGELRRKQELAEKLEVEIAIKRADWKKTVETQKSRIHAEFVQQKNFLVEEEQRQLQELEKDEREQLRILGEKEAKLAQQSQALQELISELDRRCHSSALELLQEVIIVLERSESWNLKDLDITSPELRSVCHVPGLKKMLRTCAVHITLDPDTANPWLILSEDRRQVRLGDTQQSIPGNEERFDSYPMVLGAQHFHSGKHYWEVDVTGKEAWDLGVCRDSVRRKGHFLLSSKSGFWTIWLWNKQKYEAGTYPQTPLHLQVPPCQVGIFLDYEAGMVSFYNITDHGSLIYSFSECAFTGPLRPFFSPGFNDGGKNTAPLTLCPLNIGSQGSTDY

Assays:
[1] = target: Synaptosomal-associated protein 23 (SNAP23) (human (endogenous in SW620 and HT29)) (UniProt O00161); assay: affinity purification with mass spectrometry; immunoprecipitated fractions of TFAM and of SNAP23 from SW620 cells analysed by mass spectrometry
[2] = target: T1, mitochondrial transcription factor A (TFAM) (human (endogenous in SW620 and HT29)) (UniProt Q00059); assay: as above
T1 sequence: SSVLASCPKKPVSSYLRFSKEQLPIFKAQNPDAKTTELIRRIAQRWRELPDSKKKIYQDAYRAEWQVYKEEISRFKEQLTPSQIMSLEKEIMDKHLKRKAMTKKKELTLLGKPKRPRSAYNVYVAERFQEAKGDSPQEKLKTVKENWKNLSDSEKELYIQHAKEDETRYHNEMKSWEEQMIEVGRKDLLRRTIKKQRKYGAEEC

- binding [1]: binds
- binding [2]: binds
Substance: E3 ubiquitin ligase Trim21 (from UniProt P19474 1-475)
